Some of the results follow.

Protein sequences, listed by entry. Tags and fused reporters are not part of them.
UniProt Q0JBA9, entry or part of it: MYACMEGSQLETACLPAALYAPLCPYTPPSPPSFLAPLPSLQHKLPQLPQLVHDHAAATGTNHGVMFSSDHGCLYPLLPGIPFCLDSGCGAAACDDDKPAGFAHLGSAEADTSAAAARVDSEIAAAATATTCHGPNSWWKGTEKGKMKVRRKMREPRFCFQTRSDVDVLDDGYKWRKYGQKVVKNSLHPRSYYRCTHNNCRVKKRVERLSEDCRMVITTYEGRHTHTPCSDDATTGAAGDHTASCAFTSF

This experiment addresses OsWRKY34 (Oryza sativa, UniProt Q0JBA9 1-250). In words: protein-binding microarray (RPBM); PBS, 2% BSA, 51.3 ng/ul salmon testes DNA, 50 uM zinc acetate, 200 nM TF, 25 C, 1 h; high values mean tight binding. The settings on record: protein: recombinant; tags: N-terminal polyhistidine and DsRed monomer fusion (pET32a); label: CyDye5-dUTP incorporated in the synthesized complementary strand; 3' TTTTT single-stranded linker to array surface; dsDNA, one strand shown. Put shortly: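 Binding signal here means per-feature fluorescence intensity in arbitrary units. The values were read on an Axon 4000B scanner after a custom Agilent array, double-stranded by primer extension with Cy5-dUTP, was incubated with 200 nM protein at 25 °C for 1 h in PBS with 2% BSA, salmon testes DNA and 50 µM zinc acetate, then washed. The proteins were transcription factors with an N-terminal polyhistidine tag and DsRed, expressed in E. coli BL21-CodonPlus and purified on Ni–NTA.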
“TACTTCAACCACCCCTACGCATTCAACTCCATTCTACTCTCGGAGTCACCTAGTGCAG”: the binding signal is 9460 fluorescence intensity (a.u.).
In the case of “GCATTTGGTTGTTGCTGTGGACTCTGGATGATTTTTTTTACGGAGTCACCTAGTGCAG” it was 14000 fluorescence intensity (a.u.); in that of “ACTATTTTTTTCTCTTTTCAGTCTTCAAATATTATGCTACCGGAGTCACCTAGTGCAG”, 10700 fluorescence intensity (a.u.); in that of “TCAACGGTTTCAGGCCTACTTCTCTTCCTCACGCGCGCTGCGGAGTCACCTAGTGCAG”, 8710 fluorescence intensity (a.u.).
For “TCCTCGCCACCGCCGCCGTGTTCCTCTTCCACCGCCGGACCGGAGTCACCTAGTGCAG”, the binding signal was 8500 fluorescence intensity (a.u.).
In the case of “GCTTAATTACATGGGAGAGGCTTTGTTTCTTGTTTATTTTCGGAGTCACCTAGTGCAG” it was 8760 fluorescence intensity (a.u.).
In the case of “GGGGAGGGCAGCGGCGGCGGCGAGGCACGTAGTGCTTTTTCGGAGTCACCTAGTGCAG” it was 8050 fluorescence intensity (a.u.); in that of “TTGACTAATTTTCTGGTTACGCATTTCGATCAGGTTTCATCGGAGTCACCTAGTGCAG”, 8240 fluorescence intensity (a.u.).
The result for “TATTTGTTCGTGACTCTACACTTCTTTTGCCTATTCATCTCGGAGTCACCTAGTGCAG” reads 14200 fluorescence intensity (a.u.); that for “GATTTTTTCGGACTTGGTCTCGGTCTTTTTGTTTGGTTATCGGAGTCACCTAGTGCAG”, 10200 fluorescence intensity (a.u.); that for “GGGGTGAGTGCGCATGCGTAGTGAGCTTCTGTGTTTGTTCCGGAGTCACCTAGTGCAG”, 8600 fluorescence intensity (a.u.).
On to “ATTCTTAGGTTCGCTCGCTACTACTACAAAATCAATTTTTCGGAGTCACCTAGTGCAG”, for which the binding signal was 8080 fluorescence intensity (a.u.).
In the case of “ATGTCCCTTTCGGGTTGGGTTGCATTTGAGGGAGGCTTCACGGAGTCACCTAGTGCAG” it was 13700 fluorescence intensity (a.u.); in that of “GCATGGAGTTTTATTGTTTTAATTTGATGTAAATTATCTACGGAGTCACCTAGTGCAG”, 9320 fluorescence intensity (a.u.); in that of “CCGGTATCCACTGCGTGCGTGCGTTGCCTGCTAGAATCCCCGGAGTCACCTAGTGCAG”, 9490 fluorescence intensity (a.u.).
The result for “GTGGTGACAATTTAGCATATGCATAGTTTCTGTGTGGAACCGGAGTCACCTAGTGCAG” reads 8030 fluorescence intensity (a.u.); that for “TGTCAGGTCAAATCGGGGAGGCGGGGTGCGTACCAACGGTCGGAGTCACCTAGTGCAG”, 11900 fluorescence intensity (a.u.); that for “TGCCATTCTGTCGGTCTCTCTCAAGTCTCAACACATAAACCGGAGTCACCTAGTGCAG”, 10200 fluorescence intensity (a.u.).
Consider “ACTGCAATTCTTTGCAATTGTCTTTGCCTTTGTTCAGCCTCGGAGTCACCTAGTGCAG”, for which the binding signal is 8800 fluorescence intensity (a.u.).
In the case of “CTTGGCTGGCATACATGGCGAGACTGCTTCCAAGAACCTCCGGAGTCACCTAGTGCAG” it was 8190 fluorescence intensity (a.u.); in that of “CAAATGTTGACACCTAGCTCTCACCATGCCACCTCAACTTCGGAGTCACCTAGTGCAG”, 8290 fluorescence intensity (a.u.).
As to “ACACATGCATGCTGCTTTAGTCGGTTTTTTCTCTCGACTACGGAGTCACCTAGTGCAG”, the binding signal was 8330 fluorescence intensity (a.u.).
Consider “ACATCTTGTCCTCATGCCTTGCCTTTCCAACACCTTAATTCGGAGTCACCTAGTGCAG”, for which the binding signal is 8740 fluorescence intensity (a.u.).
The result for “TCGCAGCTCCTCTTCCCCGCCTCCTCCGTTGACCGCCACCCGGAGTCACCTAGTGCAG” reads 12500 fluorescence intensity (a.u.); that for “CACACACCCGTTTTGTTCTTCAGCTGGTAGTTGTTGCAAACGGAGTCACCTAGTGCAG”, 9080 fluorescence intensity (a.u.).
As for “ACTCCACTCCTAATCGCTCTTGGTCAAGACCCTGAGATCTCGGAGTCACCTAGTGCAG”, the binding signal was 8220 fluorescence intensity (a.u.).
The result for “TGCATTATATTCACGACCATGCCACATATGTAGGCACAACCGGAGTCACCTAGTGCAG” reads 10300 fluorescence intensity (a.u.); that for “TTCCCTGCCATTTACGCACTGTATTATTTTTCCTGACCAACGGAGTCACCTAGTGCAG”, 8060 fluorescence intensity (a.u.).
The result for “CTTCTTCTTCGATCCTTTCACTCCGTGTAGTTCTTGATTTCGGAGTCACCTAGTGCAG” reads 9580 fluorescence intensity (a.u.); that for “CTCAACTATCTTAATACAATTGGTTGGCTGTCCTTCGGCCCGGAGTCACCTAGTGCAG”, 8700 fluorescence intensity (a.u.).
The result for “GAAACCAACAGCTCAGAATTTCTCAGTCTTCTCGTTCACACGGAGTCACCTAGTGCAG” reads 9340 fluorescence intensity (a.u.); that for “TCTTCTAACTGTACAATTAGTTTTTCTTTTTATTTATATTCGGAGTCACCTAGTGCAG”, 8860 fluorescence intensity (a.u.); that for “TTTGTGGGGCTCTCTCTTTGATGCTTTCTTCTCTTTAGCTCGGAGTCACCTAGTGCAG”, 10000 fluorescence intensity (a.u.).
For “TATCTGTTTTTCTTTTCAATTTTTCAGGTGTGGGATTCGTCGGAGTCACCTAGTGCAG”, the binding signal is 9080 fluorescence intensity (a.u.).
In the case of “AGCAACTTAAAGTTTGTCAACACTATCACTATGCATATTCCGGAGTCACCTAGTGCAG” it was 8870 fluorescence intensity (a.u.); in that of “TGCCCAGCACGAATATTGCAGCAGCCGTCCCTGTCCTTTTCGGAGTCACCTAGTGCAG”, 8700 fluorescence intensity (a.u.).
In the case of “GTAGCGTCCTTATGTTTGCTTTGTGTCCGCATCGATACCGCGGAGTCACCTAGTGCAG” it was 11400 fluorescence intensity (a.u.).
The result for “ATATTTTCTTAATACAATCTTCGTTCATTTGACACTGATTCGGAGTCACCTAGTGCAG” reads 8520 fluorescence intensity (a.u.); that for “ATCCTCGTACCAGCGTACCTCAATACCCTCTATATCCGATCGGAGTCACCTAGTGCAG”, 11800 fluorescence intensity (a.u.).
For the sequence “ATTTGGCCCAACGCCGCCTCGCTACAGAGACTATCTATAACGGAGTCACCTAGTGCAG”, the binding signal is 8510 fluorescence intensity (a.u.).
As for “ATCAAGCCAATCGTACACCATGTTTTCCTATCTACTGTAGCGGAGTCACCTAGTGCAG”, the binding signal is 12400 fluorescence intensity (a.u.).
In the case of “CCCCTAAACCGCACCATTATACTCCAGCTGCAGTCTTTCCCGGAGTCACCTAGTGCAG” it was 9710 fluorescence intensity (a.u.).

(Values after paper PMC7819943, “Rice protein-binding microarrays: a tool to detect cis-acting elements near promoter regions in rice”.)
